Experimental data: PubChem BioAssay AID1224828 (NIAID, 2016)

- Assay: 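Knock-downs that increase or decrease LPS-induced p65 nuclear translocation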 (primary screen)
- System: mouse RAW264.7 G9 macrophage reporter cells (GFP-p65, Tnf promoter-mCherry)
- Knock-down reagent: siRNA pool against mouse genes, 100 nM
- Timing: 2 days siRNA transfection, then 40 min LPS before fixation
- Treatment: LPS (Salmonella minnesota R595) at 10 ng/ml
- Measurement: 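Imaged p65 nuclear translocation ratio, normalised to the plate median, converted to robust z-scores and averaged across two replicates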
- Reading the numbers: p65 translocation robust z-score: higher = more nuclear NF-kappaB p65 after LPS than the plate median; nuclear/cytoplasmic p65 ratio: higher = more nuclear NF-kappaB p65
- Active means: 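Active if robust z is above 3.3 (negative regulators) or below -1.56, the Tlr4 control median (positive regulators); activity score 50 or more; control wells not called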
- Calls: active = hit (p65 shift raised or lowered); inactive = no clear change
This is an unselected part of about 17,000 reagents tested. Over the whole deposit, 762 (4.5%) got an active call. 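Active calls include both raised and lowered p65 entry, mostly lowered; wells with fewer than 50 cells lack a z-score.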 Raw values vary from plate to plate and are shown uncorrected. Entries without a mark were called inactive.

gene | PubChem SID | p65 translocation robust z-score | nuclear/cytoplasmic p65 ratio, rep 1 | nuclear/cytoplasmic p65 ratio, rep 2 | low cell count flag
Snai2 | SID315469326 | -0.23 | 1.49 | 1.55 | enough cells to score
Arhgef19 | SID315477820 | 2.18 | 1.72 | 1.66 | enough cells to score
Gfral | SID315481907 | 1.67 | 1.9 | 1.79 | enough cells to score
Dctn4 | SID315473153 | 1.28 | 1.53 | 1.65 | enough cells to score
Ap2s1 | SID315479020 | -0.29 | 1.52 | 1.68 | enough cells to score
Zfp120 | SID315476433 | 1.46 | 1.67 | 1.36 | enough cells to score
Fgf3 | SID315466669 | -0.43 | 1.39 | 1.3 | enough cells to score
Zfp715 | SID315473938 | 0.59 | 1.44 | 1.57 | enough cells to score
Tank | SID315469579 | 0.3 | 1.56 | 1.46 | enough cells to score
Tnmd | SID315472066 | – | 2.2 | 1.43 | fewer than 50 cells per well; well left out of scoring
Gbgt1 | SID315478582 | -0.5 | 1.49 | 1.42 | enough cells to score
D930031A20Rik | SID315481086 | -0.17 | 1.49 | 1.58 | enough cells to score
Klhdc1 | SID315480940 | -0.65 | 1.41 | 1.39 | enough cells to score
Acsf3 | SID315479926 | 1.5 | 1.82 | 2.07 | enough cells to score
Pdlim3 | SID315471038 | -1.06 | 1.27 | 1.14 | enough cells to score
Piwil2 | SID315471805 | 0.15 | 1.56 | 1.39 | enough cells to score
Vmn1r6 | SID315477282 | 2.12 | 1.72 | 1.42 | enough cells to score
Ptprj | SID315468814 | -0.3 | 1.69 | 1.3 | enough cells to score
Ifnlr1 | SID315479642 | -0.88 | 1.33 | 1.29 | enough cells to score
Tlcd4 | SID315476195 | -0.64 | 1.52 | 1.65 | enough cells to score
Hapln3 | SID315473154 | -0.67 | 1.29 | 1.46 | enough cells to score
Fscn2 | SID315479380 | -0.7 | 1.31 | 1.32 | enough cells to score
Adipor2 | SID315473537 | 0.12 | 1.52 | 1.63 | enough cells to score
Krt90 | SID315479456 | – | 1.3 | 1.28 | fewer than 50 cells per well; well left out of scoring

Look-ups from above.
Ifnlr1 [SID315479642], p65 translocation robust z-score: -0.88
Snai2 [SID315469326], nuclear/cytoplasmic p65 ratio, rep 2 → 1.55
Under “nuclear/cytoplasmic p65 ratio, rep 1”, Fgf3 [SID315466669] reads 1.39
Value of Zfp715 [SID315473938] in “p65 translocation robust z-score”: 0.59
